Results as given in PubChem BioAssay AID192 (DTP/NCI, 2004).
The list shows only some results of the screen, not a fair sample: it is rich in T/C values a quarter to a half above the control, in often repeated tests (any T/C) and in doses without a T/C. Other doses and runs of a compound stand elsewhere. T/C is the treated group as % of the vehicle group. Some doses have a count of surviving animals in place of a T/C: the source holds a T/C of zero for them, seemingly a mark for toxic or unscored doses. Some doses without a T/C left all or most animals alive at the check, yet need not have been tolerated: the source hardly ever lists a survival T/C far under the control, and the zero likely stands for such cases as well. Survivors were counted at the toxicity check, usually on the fifth day, unless a day is given; later deaths do not show. Schedule codes are those of the source, taken here to give the interval after Q, in days (D) or hours (H), and the number of doses after X. Additions like (4×) stand for listed records that agree. Some entries hold several experiments; their values stand side by side, smallest first. Where survival is the endpoint, this PubChem deposit counts one and a half times the control or more as active, and values a quarter to a half above the control carry no call in these data; other NCI protocols may use other cut-offs. Some T/C values carry the count of animals alive at the toxicity check (mostly the fifth day); where none is given, no animal had died by that day.

Test system: BDF1 mice, B16 melanoma ip, median survival T/C
Experiment: NCI In Vivo Anticancer Drug Screen. Data for tumor model B16 Melanoma (intraperitoneal) in B6D2F1 (BDF1) mice
Conditions: T/C endpoint: median survival time, higher T/C = longer survival
In short: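 Read-out: survival or tumor size, given as treated/control ratio. Controls received vehicle only; animals bore transplantable tumors.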

[1] = dose: 50.0 mg/kg/injection, schedule: Q01DX009 (ip), vehicle: saline
[2] = dose: 25.0 mg/kg/injection, schedule: Q01DX009 (ip), vehicle: saline with Tween-80
[3] = dose: 50.0 mg/kg/injection, schedule: Q01DX009 (ip), vehicle: saline with Tween-80
[4] = dose: 25.0 mg/kg/injection, schedule: Q01DX009 (ip), vehicle: saline
[5] = dose: 100.0 mg/kg/injection, schedule: Q01DX009 (ip), vehicle: saline
[6] = dose: 0.64 mg/kg/injection, schedule: Q01DX001 (ip), vehicle: water
[7] = dose: 100.0 mg/kg/injection, schedule: Q01DX009 (ip), vehicle: saline with Tween-80
[8] = dose: 200.0 mg/kg/injection, schedule: Q01DX009 (ip), vehicle: saline with Tween-80

Nc1ccc(S(=O)(=O)CCCl)cc1
survivor count (dose: 50.0 mg/kg/injection, schedule: Q04DX003 (ip), vehicle: Klucel (hydroxypropylcellulose) (HPC)): 10 of 10
survivor count (dose: 100.0 mg/kg/injection, schedule: Q04DX003 (ip), vehicle: Klucel (hydroxypropylcellulose) (HPC)): 10 of 10

COC(=O)c1n[nH]c(C(C)C)c1N=NN(C)C
survivor count (dose: 150.0 mg/kg/injection, schedule: Q01DX009 (ip), vehicle: saline with Tween-80): 10 of 10
survivor count (dose: 300.0 mg/kg/injection, schedule: Q01DX009 (ip), vehicle: saline with Tween-80): 6 of 10

CNc1n[n+](-c2ccccc2)no1
survivor count [1]: 8 of 10

ClC(Cl)(Cl)Sn1cccn1
survivor count (dose: 12.5 mg/kg/injection, schedule: Q01DX009 (ip), vehicle: saline with Tween-80): 10 of 10
survivor count [2]: 9 of 10
survivor count [3]: 7 of 10

CC1CN1P(=O)(N1CC1C)N1CC1C (centres undefined)
T/C [4]: 134 % of control
survivor count [1]: 9 of 10 and 10 of 10
survivor count [5]: 10 of 10
survivor count (dose: 200.0 mg/kg/injection, schedule: Q04DX003 (ip), vehicle: saline): 7 of 10

O/N=C1\CCCC\C1=N/O.O/N=C1\CCCC\C1=N/O.[Pd]
survivor count (dose: 100.0 mg/kg/injection, schedule: Q04DX003 (ip), vehicle: other): 10 of 10
survivor count (dose: 200.0 mg/kg/injection, schedule: Q04DX003 (ip), vehicle: other): 10 of 10
survivor count (dose: 400.0 mg/kg/injection, schedule: Q04DX003 (ip), vehicle: other): 10 of 10

CC(=O)[C@]1(O)Cc2c(O)c3c(c(O)c2[C@@H](OC2CC(N)C(O)C(C)O2)C1)C(=O)c1c(O)cccc1C3=O (some centres undefined)
T/C (dose: 0.04 mg/kg/injection, schedule: Q01DX001 (ip), vehicle: water): 135 % of control
T/C (dose: 0.16 mg/kg/injection, schedule: Q01DX001 (ip), vehicle: water): 144 % of control
T/C (dose: 0.32 mg/kg/injection, schedule: Q01DX001 (ip), vehicle: water): 131 and 139 % of control
T/C [6]: 129 % of control
survivor count [6]: 9 of 10
T/C (dose: 0.75 mg/kg/injection, schedule: Q01DX001 (ip), vehicle: water): 133 % of control
survivor count (dose: 1.28 mg/kg/injection, schedule: Q01DX001 (ip), vehicle: water): 2 of 10 and 10 of 10
survivor count (dose: 1.5 mg/kg/injection, schedule: Q01DX001 (ip), vehicle: water): 10 of 10
survivor count (dose: 3.0 mg/kg/injection, schedule: Q01DX001 (ip), vehicle: water): 9 of 10
survivor count (dose: 6.0 mg/kg/injection, schedule: Q01DX001 (ip), vehicle: water): 6 of 10

CC(Cc1ccccc1)NC(C#N)c1ccccc1 (centres undefined)
survivor count (dose: 50.0 mg/kg/injection, schedule: Q01DX009 (ip), vehicle: Klucel (hydroxypropylcellulose) (HPC)): 10 of 10
survivor count (dose: 100.0 mg/kg/injection, schedule: Q01DX009 (ip), vehicle: Klucel (hydroxypropylcellulose) (HPC)): 1 of 10

C=C1C(C)C2C(Cc3ccccc3)NC(=O)C23OC(=O)/C=C\CC(=O)CCC(C)C/C=C/C3C1O (centres undefined)
T/C (dose: 5.0 mg/kg/injection, schedule: Q01DX009 (ip), vehicle: Klucel (hydroxypropylcellulose) (HPC)): 139 % of control
survivor count (dose: 10.0 mg/kg/injection, schedule: Q01DX009 (ip), vehicle: Klucel (hydroxypropylcellulose) (HPC)): 5 of 10
survivor count (dose: 20.0 mg/kg/injection, schedule: Q01DX009 (ip), vehicle: Klucel (hydroxypropylcellulose) (HPC)): 0 of 10

O=c1[nH]c2ccccc2c2cc3ccccc3cc12
survivor count [4]: 10 of 10
survivor count [1]: 10 of 10
survivor count [5]: 9 of 10
survivor count (dose: 200.0 mg/kg/injection, schedule: Q01DX009 (ip), vehicle: saline): 10 of 10
survivor count (dose: 400.0 mg/kg/injection, schedule: Q01DX009 (ip), vehicle: saline): 10 of 10

Cc1cc(C)c(C(Cl)(Cl)Cl)c(C)c1Cl
survivor count [2]: 10 of 10 (2×)
survivor count [3]: 10 of 10
survivor count [7]: 4 of 10
survivor count [8]: 2 of 10

O=C(NC1CCc2ccccc21)c1ccccc1 (centres undefined)
survivor count [3]: 10 of 10
survivor count [7]: 10 of 10
survivor count [8]: 10 of 10
survivor count (dose: 400.0 mg/kg/injection, schedule: Q01DX009 (ip), vehicle: saline with Tween-80): 9 of 10

CN1CCN(C2=C(Cl)C(=O)c3ccccc3C2=O)CC1
survivor count (dose: 5.0 mg/kg/injection, schedule: Q01DX009 (ip), vehicle: saline): 10 of 10
survivor count (dose: 10.0 mg/kg/injection, schedule: Q01DX009 (ip), vehicle: saline): 10 of 10

CC(C)(C)C1CCCCC1
survivor count (dose: 200.0 mg/kg/injection, schedule: Q01DX009 (ip), vehicle: Klucel (hydroxypropylcellulose) (HPC)): 10 of 10
survivor count (dose: 400.0 mg/kg/injection, schedule: Q01DX009 (ip), vehicle: Klucel (hydroxypropylcellulose) (HPC)): 9 of 10

S=c1nc[nH]c2nc[nH]c12.[Ag]
T/C (dose: 600.0 mg/kg/injection, schedule: Q01DX009 (ip), vehicle: carboxymethylcellulose (CMC)): 125 % of control [5 of 6 alive]

Cc1ccc(Nc2c3ccccc3nc3ccccc23)cc1
T/C (dose: 37.5 mg/kg/injection, schedule: Q01DX009 (ip), vehicle: saline with Tween-80): 126 % of control
T/C (dose: 75.0 mg/kg/injection, schedule: Q01DX009 (ip), vehicle: saline with Tween-80): 139 % of control

CC1=CC(O)C(O)C2(C)C1CC(=O)C13COC4OC(CC1C4=O)C(O)C32 (centres undefined)
survivor count (dose: 2.5 mg/kg/injection, schedule: Q01DX009 (ip), vehicle: saline with Tween-80): 10 of 10

CC1C(=O)OCC2=CCN3CCC(OC(=O)C(C)C1(C)O)C23 (centres undefined)
T/C [5]: 130 % of control

CCc1cc(O)cc(C)c1Cl
survivor count [7]: 10 of 10
survivor count [8]: 10 of 10
